Like-named read-outs stand apart in the source and are kept apart here.

For the data set the following is noted: broilers, 43 to 46 days of age.
Where [1] appears, read: 20 ppm of copper added to base diet.

`O=S(=O)([O-])[O-].[Cu+2]` [copper sulfate]: the Consumption of feed came out at 206 g under setting [1] and 206 g (150 ppm of copper added to base diet).

Copper butyrate returned a Consumption of feed under setting [1] of 210 g.

(Values after US20090131702A1, “METHOD FOR THE PRODUCTION OF METAL CARBOXYLATES AND THE METAL AMINOATE OR METAL HYDROXY ANALOGUE METHIONATE DERIVATIVES THEREOF, AND USE OF SAME AS GROWTH PROMOTERS IN ANIMAL FEED” (NOREL, S.A., priority 2003, published 2009).)
